Assay results: US20230266316A1
Results are given in words; binding and its absence hold for the method and conditions named. For some assays here: Binding seen in cells or lysates may run through a third protein. Some entries that bind do so weakly or less than the wild type.

The chains behind the UniProt entries cited, without tags or fusion partners. Where a name states a change or a piece, a line headed by the entry shows the natural chain unless it says otherwise. A line that says so, or that is headed by a name, gives the form on record, which may keep a tag or linker.
Human SSTR4 (somatostatin receptor subtype 4) with C-terminal Myc-tag, expressed in CHO cells from pcDNA-SSTR4 (P31391, form named): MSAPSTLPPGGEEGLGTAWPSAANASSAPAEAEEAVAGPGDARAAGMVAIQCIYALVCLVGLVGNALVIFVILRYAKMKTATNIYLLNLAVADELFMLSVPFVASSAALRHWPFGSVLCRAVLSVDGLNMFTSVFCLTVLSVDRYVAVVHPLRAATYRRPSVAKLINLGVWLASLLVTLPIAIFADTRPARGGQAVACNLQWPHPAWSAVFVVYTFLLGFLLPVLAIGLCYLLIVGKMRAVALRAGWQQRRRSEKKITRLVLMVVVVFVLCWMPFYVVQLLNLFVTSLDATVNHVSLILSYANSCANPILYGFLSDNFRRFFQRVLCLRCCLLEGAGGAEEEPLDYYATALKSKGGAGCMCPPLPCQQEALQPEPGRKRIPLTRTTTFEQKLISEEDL
Human SSTR1 (somatostatin receptor subtype 1) with C-terminal Flag-tag, expressed in CHO cells from pcDNA-SSTR1 (P30872, form named): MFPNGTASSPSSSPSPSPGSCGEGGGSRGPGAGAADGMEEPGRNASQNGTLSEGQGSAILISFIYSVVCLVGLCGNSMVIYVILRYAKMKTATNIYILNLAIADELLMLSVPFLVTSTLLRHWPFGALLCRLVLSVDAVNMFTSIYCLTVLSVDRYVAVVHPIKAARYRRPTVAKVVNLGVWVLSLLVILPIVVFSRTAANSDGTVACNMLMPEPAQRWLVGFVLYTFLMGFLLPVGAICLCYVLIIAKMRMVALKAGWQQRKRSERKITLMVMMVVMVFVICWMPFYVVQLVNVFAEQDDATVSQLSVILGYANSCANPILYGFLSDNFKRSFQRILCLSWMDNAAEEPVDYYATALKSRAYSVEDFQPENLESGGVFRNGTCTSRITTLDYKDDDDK

Tests used:
[1] = target: Human SSTR4 (somatostatin receptor subtype 4) with C-terminal Myc-tag, expressed in CHO cells from pcDNA-SSTR4 (human) (UniProt P31391); assay: proximity ligation assay (Duolink PLA; anti-FLAG and anti-Myc primary antibodies) in co-transfected CHO cells, confocal imaging
[2] = target: Human SSTR4 (somatostatin receptor subtype 4) with C-terminal Myc-tag, expressed in CHO cells from pcDNA-SSTR4 (human) (UniProt P31391); assay: immunostaining (anti-FLAG and anti-Myc), confocal co-localization in co-transfected CHO cells

- binding [1]: binds
- binding [2]: binds
Substance: Human SSTR1 (somatostatin receptor subtype 1) with C-terminal Flag-tag, expressed in CHO cells from pcDNA-SSTR1 (from UniProt P30872 1-391)
